{"source": "patent US20240334941A1", "about": "“HIGH-EFFICACY NATURAL PRESERVATIVES” (BioVeritas, LLC, priority 2023, published 2024)", "key": {"[1]": {"assay": "Descriptive sensory analysis of breads by trained panel (Example 5)", "settings": "0.5% on flour; for crumb cell size (small to large) / crumb cell uniformity / crumb color (light to dark) / crust color (light to dark) / hand crumb springiness / hand side crust springiness / porosity: appearance and hand texture; for crumb adhesiveness to palate / crumb chewiness / crumb cohes. Of mass @ 4 to 7 chews / crumb hardness / crumb moistness / crumb tooth - packing / top crust chewiness: oral texture"}, "[2]": {"assay": "Loaf weight, volume and bake score (Example 6)", "settings": "for Specific Volume / Weight: loaf out of the oven"}, "[3]": {"settings": "crumb flavor, day 1, 0-15 scale"}, "[4]": {"settings": "crumb flavor, day 7, 0-15 scale"}, "[5]": {"settings": "crust flavor, day 1, 0-15 scale"}, "[6]": {"settings": "crust flavor, day 7, 0-15 scale"}}, "data": [{"smiles": "CCC(=O)[O-].CCC(=O)[O-].[Ca+2]", "note": "[CCP, calcium propionate]", "values": [{"measurement": "crumb cell size (small to large)", "setting": "[1]; day 1, 0-15 scale", "result": 6.9, "unit": "f"}, {"measurement": "crumb cell uniformity", "setting": "[1]; day 1, 0-15 scale", "result": 9.4, "unit": "b"}, {"measurement": "crumb color (light to dark)", "setting": "[1]; day 1, 0-15 scale", "result": 3.0, "unit": "a"}, {"measurement": "crust color (light to dark)", "setting": "[1]; day 1, 0-15 scale", "result": 10.5, "unit": "cd"}, {"measurement": "hand crumb springiness", "setting": "[1]; day 1, 0-15 scale", "result": 12.3, "unit": "ab"}, {"measurement": "hand side crust springiness", "setting": "[1]; day 1, 0-15 scale", "result": 14.1, "unit": "a"}, {"measurement": "porosity", "setting": "[1]; day 1, 0-15 scale", "result": 11.7, "unit": "a"}, {"measurement": "crumb cell size (small to large)", "setting": "[1]; day 7, 0-15 scale", "result": 6.7, "unit": "f"}, {"measurement": "crumb cell uniformity", "setting": "[1]; day 7, 0-15 scale", "result": 10.1, "unit": "a"}, {"measurement": "crumb color (light to dark)", "setting": "[1]; day 7, 0-15 scale", "result": 3.0, "unit": "a"}, {"measurement": "crust color (light to dark)", "setting": "[1]; day 7, 0-15 scale", "result": 10.4, "unit": "days"}, {"measurement": "hand crumb springiness", "setting": "[1]; day 7, 0-15 scale", "result": 12.4, "unit": "ab"}, {"measurement": "hand side crust springiness", "setting": "[1]; day 7, 0-15 scale", "result": 12.6, "unit": "b"}, {"measurement": "porosity", "setting": "[1]; day 7, 0-15 scale", "result": 11.0, "unit": "b"}, {"measurement": "aft int.", "setting": "[1]; [3]", "result": 2.1, "unit": "a"}, {"measurement": "astr mf", "setting": "[1]; [3]", "result": 1.8, "unit": "a"}, {"measurement": "salty", "setting": "[1]; [3]", "result": 3.1, "unit": "a"}, {"measurement": "sour", "setting": "[1]; [3]", "result": 0.6, "unit": "c"}, {"measurement": "sour aromatic", "setting": "[1]; [3]", "result": 1.6, "unit": "a"}, {"measurement": "sweet", "setting": "[1]; [3]", "result": 3.1, "unit": "a"}, {"measurement": "umami", "setting": "[1]; [3]", "result": 2.9, "unit": "a"}, {"measurement": "white flour paste", "setting": "[1]; [3]", "result": 1.2, "unit": "b"}, {"measurement": "yeasty/ fermented", "setting": "[1]; [3]", "result": 2.1, "unit": "b"}, {"measurement": "aft int.", "setting": "[1]; [4]", "result": 2.1, "unit": "a"}, {"measurement": "astr mf", "setting": "[1]; [4]", "result": 1.7, "unit": "a"}, {"measurement": "salty", "setting": "[1]; [4]", "result": 3.1, "unit": "a"}, {"measurement": "sour", "setting": "[1]; [4]", "result": 0.6, "unit": "c"}, {"measurement": "sour aromatic", "setting": "[1]; [4]", "result": 0.5, "unit": "c"}, {"measurement": "sweet", "setting": "[1]; [4]", "result": 3.1, "unit": "a"}, {"measurement": "umami", "setting": "[1]; [4]", "result": 2.8, "unit": "a"}, {"measurement": "white flour paste", "setting": "[1]; [4]", "result": 1.4, "unit": "a"}, {"measurement": "yeasty/ fermented", "setting": "[1]; [4]", "result": 2.0, "unit": "b"}, {"measurement": "aft int.", "setting": "[1]; [5]", "result": 2.1, "unit": "a"}, {"measurement": "astr mf", "setting": "[1]; [5]", "result": 2.0, "unit": "b"}, {"measurement": "bitter", "setting": "[1]; [5]", "result": 1.0, "unit": "a"}, {"measurement": "burned/ tstd", "setting": "[1]; [5]", "result": 1.4, "unit": "c"}, {"measurement": "salty", "setting": "[1]; [5]", "result": 3.0, "unit": "a"}, {"measurement": "sour", "setting": "[1]; [5]", "result": 1.9, "unit": "bc"}, {"measurement": "sour aromatic", "setting": "[1]; [5]", "result": 1.1, "unit": "days"}, {"measurement": "sweet", "setting": "[1]; [5]", "result": 2.6, "unit": "b"}, {"measurement": "umami", "setting": "[1]; [5]", "result": 2.5, "unit": "bc"}, {"measurement": "white flour paste", "setting": "[1]; [5]", "result": 1.1, "unit": "a"}, {"measurement": "aft int.", "setting": "[1]; [6]", "result": 2.0, "unit": "a"}, {"measurement": "astr mf", "setting": "[1]; [6]", "result": 2.0, "unit": "b"}, {"measurement": "bitter", "setting": "[1]; [6]", "result": 0.9, "unit": "a"}, {"measurement": "burned/ tstd", "setting": "[1]; [6]", "result": 1.2, "unit": "days"}, {"measurement": "salty", "setting": "[1]; [6]", "result": 3.0, "unit": "a"}, {"measurement": "sour", "setting": "[1]; [6]", "result": 1.9, "unit": "bc"}, {"measurement": "sour aromatic", "setting": "[1]; [6]", "result": 1.3, "unit": "cd"}, {"measurement": "sweet", "setting": "[1]; [6]", "result": 2.5, "unit": "b"}, {"measurement": "umami", "setting": "[1]; [6]", "result": 2.5, "unit": "bc"}, {"measurement": "white flour paste", "setting": "[1]; [6]", "result": 1.1, "unit": "a"}, {"measurement": "crumb adhesiveness to palate", "setting": "[1]; day 1, 0-15 scale", "result": 4.4, "unit": "c"}, {"measurement": "crumb chewiness", "setting": "[1]; day 1, 0-15 scale", "result": 10.8, "unit": "b"}, {"measurement": "crumb cohes. Of mass @ 4 to 7 chews", "setting": "[1]; day 1, 0-15 scale", "result": 13.1, "unit": "a"}, {"measurement": "crumb hardness", "setting": "[1]; day 1, 0-15 scale", "result": 4.2, "unit": "c"}, {"measurement": "crumb moistness", "setting": "[1]; day 1, 0-15 scale", "result": 11.4, "unit": "b"}, {"measurement": "crumb tooth - packing", "setting": "[1]; day 1, 0-15 scale", "result": 4.9, "unit": "c"}, {"measurement": "top crust chewiness", "setting": "[1]; day 1, 0-15 scale", "result": 10.1, "unit": "b"}, {"measurement": "crumb adhesiveness to palate", "setting": "[1]; day 7, 0-15 scale", "result": 5.4, "unit": "a"}, {"measurement": "crumb chewiness", "setting": "[1]; day 7, 0-15 scale", "result": 10.9, "unit": "b"}, {"measurement": "crumb cohes. Of mass @ 4 to 7 chews", "setting": "[1]; day 7, 0-15 scale", "result": 12.5, "unit": "b"}, {"measurement": "crumb hardness", "setting": "[1]; day 7, 0-15 scale", "result": 4.8, "unit": "b"}, {"measurement": "crumb moistness", "setting": "[1]; day 7, 0-15 scale", "result": 7.9, "unit": "e"}, {"measurement": "crumb tooth - packing", "setting": "[1]; day 7, 0-15 scale", "result": 5.7, "unit": "b"}, {"measurement": "top crust chewiness", "setting": "[1]; day 7, 0-15 scale", "result": 9.7, "unit": "c"}, {"measurement": "bake score: Aroma (10)", "setting": "[2]; 0.5 wt. %", "result": 10}, {"measurement": "bake score: Crumb Color (10)", "setting": "[2]; 0.5 wt. %", "result": 6}, {"measurement": "bake score: Crust (10)", "setting": "[2]; 0.5 wt. %", "result": 8}, {"measurement": "bake score: Grain (20)", "setting": "[2]; 0.5 wt. %", "result": 15}, {"measurement": "bake score: Symmetry (10)", "setting": "[2]; 0.5 wt. %", "result": 8}, {"measurement": "bake score: Taste (10)", "setting": "[2]; 0.5 wt. %", "result": 10}, {"measurement": "bake score: Texture (20)", "setting": "[2]; 0.5 wt. %", "result": 16}, {"measurement": "bake score: Total Score (100)", "setting": "[2]; 0.5 wt. %", "result": 80}, {"measurement": "bake score: Uniformity (10)", "setting": "[2]; 0.5 wt. %", "result": 7}, {"measurement": "bake score: Aroma (10)", "setting": "[2]; 0.8 wt. %", "result": 10}, {"measurement": "bake score: Crumb Color (10)", "setting": "[2]; 0.8 wt. %", "result": 6}, {"measurement": "bake score: Crust (10)", "setting": "[2]; 0.8 wt. %", "result": 7}, {"measurement": "bake score: Grain (20)", "setting": "[2]; 0.8 wt. %", "result": 17}, {"measurement": "bake score: Symmetry (10)", "setting": "[2]; 0.8 wt. %", "result": 8}, {"measurement": "bake score: Taste (10)", "setting": "[2]; 0.8 wt. %", "result": 10}, {"measurement": "bake score: Texture (20)", "setting": "[2]; 0.8 wt. %", "result": 16}, {"measurement": "bake score: Total Score (100)", "setting": "[2]; 0.8 wt. %", "result": 82}, {"measurement": "bake score: Uniformity (10)", "setting": "[2]; 0.8 wt. %", "result": 8}, {"measurement": "Specific Volume", "setting": "[2]; 0.5 wt. %", "result": 5.313, "unit": "cc/g"}, {"measurement": "Weight", "setting": "[2]; 0.5 wt. %", "result": 150, "unit": "g"}, {"measurement": "Specific Volume", "setting": "[2]; 0.8 wt. %", "result": 5.603, "unit": "cc/g"}, {"measurement": "Weight", "setting": "[2]; 0.8 wt. %", "result": 146, "unit": "g"}]}]}
